In the experiment the target is T1, CD81 (human (endogenous in NCI-H460)) (UniProt P60033).
T1 sequence: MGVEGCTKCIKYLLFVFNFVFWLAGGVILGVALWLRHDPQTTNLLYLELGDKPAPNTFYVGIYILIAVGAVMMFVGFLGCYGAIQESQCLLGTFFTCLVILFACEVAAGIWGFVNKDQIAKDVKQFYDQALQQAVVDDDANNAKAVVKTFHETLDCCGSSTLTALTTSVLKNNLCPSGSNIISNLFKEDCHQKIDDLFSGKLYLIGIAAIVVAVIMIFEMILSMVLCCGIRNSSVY
Briefly: co-IP; NCI-H460 cells lysed under non-denaturing conditions (1% Triton X-100, 1 h at 4°C); immunoprecipitation with anti-CD9 or anti-CD81 and protein G-Sepharose; blot with 229T mAb.

Results are given in words; binding and its absence hold for the method and conditions named. In cells and extracts the contact can be indirect. Some results given as binding are weak or reduced against the parent protein; the word gives no strength.

B1: partner 1 of CD9 (CD9P-1) (protein, UniProt Q9P2B2 26-879)
chain: VPTATLVRVVGTELVIPCNVSDYDGPSEQNFDWSFSSLGSSFVELASTWEVGFPAQLYQERLQRGEILLRRTANDAVELHIKNVQPSDQGHYKCSTPSTDATVQGNYEDTVQVKVLADSLHVGPSARPPPSLSLREGEPFELRCTAASASPLHTHLALLWEVHRGPARRSVLALTHEGRFHPGLGYEQRYHSGDVRLDTVGSDAYRLSVSRALSADQGSYRCIVSEWIAEQGNWQEIQEKAVEVATVVIQPSVLRAAVPKNVSVAEGKELDLTCNITTDRADDVRPEVTWSFSRMPDSTLPGSRVLARLDRDSLVHSSPHVALSHVDARSYHLLVRDVSKENSGYYYCHVSLWAPGHNRSWHKVAEAVSSPAGVGVTWLEPDYQVYLNASKVPGFADDPTELACRVVDTKSGEANVRFTVSWYYRMNRRSDNVVTSELLAVMDGDWTLKYGERSKQRAQDGDFIFSKEHTDTFNFRIQRTTEEDRGNYYCVVSAWTKQRNNSWVKSKDVFSKPVNIFWALEDSVLVVKARQPKPFFAAGNTFEMTCKVSSKNIKSPRYSVLIMAEKPVGDLSSPNETKYIISLDQDSVVKLENWTDASRVDGVVLEKVQEDEFRYRMYQTQVSDAGLYRCMVTAWSPVRGSLWREAATSLSNPIEIDFQTSGPIFNASVHSDTPSVIRGDLIKLFCIITVEGAALDPDDMAFDVSWFAVHSFGLDKAPVLLSSLDRKGIVTTSRRDWKSDLSLERVSVLEFLLQVHGSEDQDFGNYYCSVTPWVKSPTGSWQKEAEIHSKPVFITVKMDVLNAFKYPLLIGVGLSTVIGLLSCLIGYCSSHWCCKKEVQETRRERRRLMSMEMD
Consider B1, for which the binding entry was “binds”.

For the origin of these results see paper PMC3049554.
